Test results reported in PMC7319294.
These are yes or no findings as the source states them, for the method shown. Some binding calls cover weakened binding; strength is not graded here.

By UniProt entry, the sequences of proteins in these tests, tags left out. Residues count along the entry.
UniProt P12830, residues 155-709: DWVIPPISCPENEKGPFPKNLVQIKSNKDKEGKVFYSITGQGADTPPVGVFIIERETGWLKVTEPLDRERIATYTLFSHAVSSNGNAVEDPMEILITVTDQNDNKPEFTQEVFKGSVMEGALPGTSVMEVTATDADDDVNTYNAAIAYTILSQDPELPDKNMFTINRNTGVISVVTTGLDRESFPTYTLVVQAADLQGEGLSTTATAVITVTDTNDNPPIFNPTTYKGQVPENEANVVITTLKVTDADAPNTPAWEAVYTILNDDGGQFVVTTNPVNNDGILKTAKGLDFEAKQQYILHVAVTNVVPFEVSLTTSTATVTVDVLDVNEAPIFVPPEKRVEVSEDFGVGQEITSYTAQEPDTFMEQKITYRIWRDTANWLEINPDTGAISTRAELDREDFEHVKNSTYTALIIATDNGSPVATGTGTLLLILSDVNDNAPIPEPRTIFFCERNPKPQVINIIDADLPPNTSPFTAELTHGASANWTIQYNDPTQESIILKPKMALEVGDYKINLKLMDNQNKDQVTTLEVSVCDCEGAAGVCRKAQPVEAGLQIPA
UniProt P09803, residues 157-884: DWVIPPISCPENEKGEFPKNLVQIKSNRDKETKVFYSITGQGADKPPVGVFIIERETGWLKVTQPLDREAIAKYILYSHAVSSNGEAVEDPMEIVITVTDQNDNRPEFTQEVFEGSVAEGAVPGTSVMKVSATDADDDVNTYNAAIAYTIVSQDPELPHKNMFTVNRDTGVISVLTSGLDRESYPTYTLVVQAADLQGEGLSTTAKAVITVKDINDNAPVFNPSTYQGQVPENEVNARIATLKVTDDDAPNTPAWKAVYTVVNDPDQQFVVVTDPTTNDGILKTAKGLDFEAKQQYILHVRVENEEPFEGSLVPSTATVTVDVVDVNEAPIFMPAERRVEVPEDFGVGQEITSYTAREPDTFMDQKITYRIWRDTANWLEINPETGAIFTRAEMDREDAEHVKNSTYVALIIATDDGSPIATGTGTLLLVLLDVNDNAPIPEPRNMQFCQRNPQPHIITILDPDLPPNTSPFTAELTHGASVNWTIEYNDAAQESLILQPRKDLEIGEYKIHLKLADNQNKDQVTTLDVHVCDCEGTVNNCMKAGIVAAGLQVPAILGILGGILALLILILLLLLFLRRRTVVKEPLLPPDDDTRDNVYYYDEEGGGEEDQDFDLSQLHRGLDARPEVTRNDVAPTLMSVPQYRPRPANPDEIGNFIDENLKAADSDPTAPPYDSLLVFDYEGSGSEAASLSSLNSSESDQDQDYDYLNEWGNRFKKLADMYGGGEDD

Molecular target: human E-cadherin extracellular domain (human) (UniProt P12830)
Experiment: flow cell adhesion assay; glass capillaries coated with human E-cadherin extracellular domain; 4T1 cells (parental, shP120, WT or S/T6A p120-catenin re-expressed) dissociated with 0.2 mM EDTA, attached 10 min in HBSS, then washed at increasing flow rates in 30 s increments; percent of cells still attached counted; only the target purified

E-cadherin on the surface of 4T1 murine breast cancer cells (from UniProt P09803 157-884) (receptor)
binding: binds
